According to PubChem BioAssay AID590 (National Center for Advancing Translational Sciences (NCATS), 2007):
Several values for one entry are separate records, joined by “and”; a condition that tells them apart may be missing. Equal entries are not always repeated. The campaign covered roughly 59,000 compounds. About 6,500 (11%) were called active. Inconclusive means that the source gave no clear call. Such entries were picked first, then a sample of the others. Rule as the data show it: active = max dye-equivalent concentration above about 10 nM; inconclusive = mostly about 1.1 nM to 9.6 nM; inactive = weaker than that. Some structures have more than one record in an assay (separate samples or runs), and their calls can disagree.

Test: qHTS Assay for Spectroscopic Profiling in A350 Spectral Region
Settings: Compound autofluorescence, 340/450 nm, Alexa 350 dye-equivalents; stronger effect = higher value

| Structure (SMILES) | max dye-equivalent concentration |
| --- | --- |
| Cn1c(=O)cc(SCC(=O)N2CCC3(CC2)OCCO3)c2ccc(Cl)cc21 | inactive |
| CC(=NCCCN1CCOCC1)c1c(O)n(Cc2ccccc2)c(=O)[nH]c1=O | active: 1.8e-08 M |
| O=C1NC(=O)C2(Cc3ccccc3N3CCCC32)C(=O)N1Cc1ccccc1 (centres undefined) | inconclusive: 1.4e-09 M |
| Cc1ccc(-n2c(O)c(C=NC3CCCC3)c(=O)[nH]c2=O)c(C)c1 | inconclusive: 1.5e-09 M |
| COc1cccc(-n2nc(C(=O)N3CCC4(CC3)OCCO4)c3ccccc3c2=O)c1 | inconclusive: 1.1e-09 M |
| CCC(=NCCN1CCCCC1)c1c(O)n(C)c(=O)n(C)c1=O | inconclusive: 3.2e-09 M |
| CC(=O)[C@@]1(O)CC[C@H]2[C@@H]3CC=C4C[C@@H](O)CC[C@]4(C)[C@H]3CC[C@@]21C | inconclusive: 1.1e-09 M |
| CCOC(=O)[C@]1(C#N)[C@@H]2C=CC(C(C)=O)=CN2[C@@H](C(N)=O)[C@@H]1c1ccsc1 | inconclusive: 3e-09 M |
| C=C1CC[C@@]2(O)[C@H]3Cc4ccc(O)c5c4[C@@]2(CCN3CC2CC2)[C@H]1O5 | inconclusive: 2.3e-09 M |
| C[C@@H]1O[C@@H](O[C@H]2C[C@@H](O)[C@]3(CO)[C@@H]4[C@@H](O)C[C@]5(C)[C@H]([C@@H]6COC(=O)C6)CC[C@@]5(O)[C@H]4CC[C@@]3(O)C2)[C@H](O)[C@H](O)[C@@H]1O | inactive |
| O=c1[nH]c(=O)n(-c2cccc(Cl)c2)c(O)c1/C=N/c1ccccn1 | inconclusive: 5e-09 M |
| O=C(CCCN1CCC2(CC1)C(=O)NCN2c1ccccc1)c1ccc(F)cc1 | inconclusive: 4.1e-09 M |
| CC[C@H]1CN2CC[C@@H]1C[C@H]2[C@@H](O)c1ccnc2ccc(OC)cc12 | inconclusive: 2.2e-09 M |
| CC(C)(C)c1cc(C#N)cc(Br)c1OP(=O)(Oc1c(Br)cc(C#N)cc1C(C)(C)C)c1ccccc1 | inactive |
| Cc1cc(OC(=O)CCNC(=O)OC(C)(C)C)c2c3c(c(=O)oc2c1)CCC3 | inconclusive: 2.3e-09 M |
| CCOC(=O)C1C(=O)N(C)C2(C)CC1c1ccccc1O2 (centres undefined) | inconclusive: 1.8e-09 M |
| CN1CC[C@]2(C)c3cc(O)ccc3N(C)[C@@H]12 | active: 3.3e-08 M and active: 5.1e-08 M and active: 1.1e-08 M |
| C/C(CCc1c[nH]c2ccccc12)=N\O | active: 1.6e-08 M |
| C[N+]1(C)CCc2cc3c(cc2[C@H]1[C@@H]1OC(=O)c2c1ccc1c2OCO1)OCO3 | inconclusive: 4.4e-09 M |
| CCCCOCCCn1c(N)c(C(=O)OC(C)COC)c2nc3ccccc3nc21 (centres undefined) | active: 3e-06 M |
| CCCCn1c(O)c(C(C)=Nc2c(C)n(C)n(-c3ccccc3)c2=O)c(=O)[nH]c1=O | inconclusive: 3.8e-09 M |
| COc1ccc2c(c1OC)C(=O)O[C@H]2[C@H]1c2cc3c(cc2CCN1C)OCO3 | inconclusive: 7.5e-09 M and inconclusive: 2.3e-09 M |
| COCCNC(=O)c1c(NC(=O)c2ccco2)n(Cc2ccccc2)c2nc3ccccc3nc12 | active: 1.2e-06 M |
| COc1cc2c3cc1Oc1c(O)c(OC)cc4c1[C@@H](Cc1ccc(cc1)Oc1cc(ccc1O)C[C@H]3N(C)CC2)N(C)CC4 | inactive |
| O=C(c1cc2cc3ccc(Cl)cc3nc2o1)N1CCC2(CC1)OCCO2 | inconclusive: 3.1e-09 M |
| N[C@@H](Cc1ccccc1)P(=O)(O)O | inactive |
| COc1ccc2c(c1OC)C(=O)O[C@@H]2[C@H]1c2cc3c(cc2CCN1C)OCO3 | inactive |

| Structure (SMILES) | max dye-equivalent concentration |
| --- | --- |
| N[C@H](Cc1ccccc1)c1nn[nH]n1 | inactive |
| CC12CN3CCN(CC(C3)C1O)C2 (centres undefined) | inconclusive: 1.3e-09 M |
| Fc1ccc(N2CCN(Cc3ccc4c(c3)OCO4)CC2)cc1 | inconclusive: 2.8e-09 M |
| CN1C[C@@H](CS(=O)(=O)N(C)C)C[C@H]2c3cccc4c3c(cn4C)C[C@@H]21 | active: 1.1e-08 M |
| CCOCCCN=Cc1c(O)n(Cc2ccccc2)c(=O)[nH]c1=O | inconclusive: 2.7e-09 M |
| O=P(OCC(F)(F)C(F)F)(N1CCOCC1)N1CCOCC1 | inactive |
| c1ccc2c(c1)OCC(C1=NCCN1)O2 (centres undefined) | inconclusive: 1.8e-09 M |
| C[C@@H]1O[C@H](O[C@H]2C[C@@H](O)[C@]3(CO)[C@H]4[C@H](O)C[C@]5(C)[C@@H](C6=CC(=O)OC6)CC[C@@]5(O)[C@H]4CC[C@]3(O)C2)[C@@H](O)[C@H](O)[C@H]1O | inactive |
| CCCCn1c(N)c(C(=O)OCC2CCCO2)c2nc3ccccc3nc21 (centres undefined) | active: 5.1e-06 M |
| C[C@H]1C(=O)O[C@H]2CCN3CC=C(COC(=O)[C@](C)(O)[C@@]1(C)O)[C@H]23 | inactive |
| CN(C)[C@H]1C(=O)C(C(N)=O)=C(O)[C@]2(O)C(=O)C3=C(O)c4c(O)cccc4[C@@](C)(O)[C@H]3C[C@@H]12 | inconclusive: 2.1e-09 M |
| C[C@H](Br)CN(C[C@H](C)Br)c1ccc2c(c1)Cc1ccccc1-2 | inconclusive: 2.6e-09 M |
| CCCCOC(=O)C1=C(N)OC2=C(C(=O)CC(C)(C)C2)[C@]12C(=O)N(C)c1ccccc12 | inconclusive: 1.5e-09 M |
| C[C@@H]1O[C@H](O[C@@H]2CC[C@@]3(C=O)[C@H]4CC[C@@]5(C)[C@@H](C6=CC(=O)OC6)CC[C@@]5(O)[C@@H]4CC[C@]3(O)C2)C[C@H](O)[C@@H]1O | inconclusive: 1.3e-09 M |
| c1ccc(CCN2CCCCCC2)nc1 | inactive |
| O=C(O)Cn1cc(C(=O)c2ccccc2)c2ccccc21 | inconclusive: 1.3e-09 M |
| CCOc1ccccc1-n1c(O)c(C=Nc2c(C)n(C)n(-c3ccccc3)c2=O)c(=O)[nH]c1=O | inconclusive: 2.3e-09 M |
| CC[N@+]1(C)CCC[C@@H](OC(=O)C(O)(c2ccccc2)c2ccccc2)C1 | inconclusive: 3.3e-09 M |
| CN1C[C@H](CNC(=O)OCc2ccccc2)C[C@@H]2c3cccc4c3c(cn4C)C[C@H]21 | inconclusive: 4.4e-09 M |
| CCCCn1c(N)c(C(=O)NCCN2CCOCC2)c2nc3ccccc3nc21 | active: 1.8e-06 M |
| CN(C)c1ccc2c(c1)N=C(c1ccco1)OP2(=S)N1CCOCC1 (centres undefined) | inactive |
| Cn1c(=O)n(CC(=O)N2CCC3(CC2)OCCO3)c(=O)c2ccccc21 | inactive |
| CCOC(=O)C1CCN(C(C)C(=O)c2c(C)[nH]c3cc(C)ccc23)CC1 (centres undefined) | inconclusive: 2.3e-09 M |
| CCC(C)NC(=O)c1c(N)n(CCCOC)c2nc3ccccc3nc12 (centres undefined) | active: 1.9e-06 M |
| CCOC(=O)C1CCCCC12C(C#N)=C(N)Oc1n[nH]c(C)c12 (centres undefined) | inconclusive: 1.5e-09 M |
| N[C@@H](Cc1c[nH]c2cc([N+](=O)[O-])ccc12)C(=O)O | inactive |
| O=C(O)C[O][Sb][O]CC(=O)O | inactive |

| Structure (SMILES) | max dye-equivalent concentration |
| --- | --- |
| CN1CCN(C(=O)Cc2nc3ccccc3[nH]2)CC1 | active: 1e-08 M |
| CC(=O)N1CCC2(CC1)CC(=O)c1cc(OCC(=O)N3CCN(C)CC3)ccc1O2 | active: 1.1e-06 M |
| CCOC(=O)c1c(C)n(CCN2CCN(C)CC2)c2ccc(OC)cc12 | inconclusive: 1.5e-09 M |
| CC(=NCc1ccc(F)cc1)c1c(O)n(C)c(=O)n(C)c1=O | inconclusive: 2.3e-09 M |
| N[C@]1(C(=O)O)CC[C@@H](C(=O)O)C1 | inactive |
| CN1C[C@@H](CNC(=O)OCc2ccccc2)C[C@H]2c3cccc4c3c(cn4C)C[C@@H]21 | inconclusive: 1.4e-09 M |
| c1cnc(N2CCC3(CCNCC3)CC2)nc1 | active: 2.2e-08 M |
| CN(C)CS/C(N)=N/[C@H](O)C(Cl)(Cl)Cl | inactive |
| O=C(NCP(=O)(O)O)c1cccnc1 | inactive |
| CCC(=NCc1cccnc1)c1c(O)n(Cc2ccccc2)c(=O)[nH]c1=O | inconclusive: 1.6e-09 M |
| COCCCn1c(N)c(C(=O)NCCC(C)C)c2nc3ccccc3nc21 | active: 5.3e-07 M |
| CC[C@]1(OC(=O)CN)C(=O)OCc2c1cc1n(c2=O)Cc2cc3ccccc3nc2-1 | active: 6.5e-06 M |
| O=c1ccc2cc(O[C@H]3O[C@@H](CO)[C@@H](O)[C@@H](O)[C@@H]3O)c(O)cc2o1 | active: 1.4e-05 M |
| C[N+]1(C)C2CC[C@H]1CC(OC(=O)[C@@H](CO)c1ccccc1)C2 (some centres undefined) | inactive |
| C=C(C)[C@H]1Cc2c(ccc3c2O[C@H]2COc4cc(OC)c(OC)cc4[C@@H]2C3=O)O1 | inactive |
| O=P(O)(O)c1ccccc1 (tested in a mixture with another compound) | inactive |
| CC(=O)N1C[C@@H]2C[C@H](C1)c1cccc(=O)n1C2 | inactive |
| CC(C)[C@H]1C(=O)N2CCC[C@H]2[C@]2(O)O[C@](NC(=O)[C@@H]3C=C4c5cccc6[nH]cc(c56)C[C@H]4N(C)C3)(C(C)C)C(=O)N12 | active: 5.5e-08 M |
| C=C[C@]12CN(C)[C@H]3C1[C@@]1(C(=O)Nc4ccccc41)[C@H]1C[C@H]2[C@H]3CO1 | inactive |
| CCOc1cc(C2NCc3ccccc3-n3cccc32)ccc1O (centres undefined) | inconclusive: 3.4e-09 M |
| O=c1[nH]c(=O)n(CCc2ccc(F)cc2)c(O)c1C=NCCCn1ccnc1 | inconclusive: 1.3e-09 M |
| CC1CCC(C(=O)NC(C(=O)N2CCC3(CC2)OCCO3)C(C)C)CC1 (centres undefined) | inconclusive: 1.3e-09 M |
| COC(=O)C1C2c3ccccc3OC1(C)N=c1s/c(=C/c3cnn(C)c3C)c(=O)n12 (centres undefined) | inconclusive: 1.7e-09 M |
| NC(=O)c1cc(N2CC2)c([N+](=O)[O-])cc1[N+](=O)[O-] | inactive |
| Cc1nc2ccccc2cc1C[N+]12CN3CN(CN(C3)C1)C2 | inactive |

Fetched by compound from the entries so far, three records:

| Structure (SMILES) | max dye-equivalent concentration |
| --- | --- |
| CN(C)CS/C(N)=N/[C@H](O)C(Cl)(Cl)Cl | inactive |
| CC(=O)N1C[C@@H]2C[C@H](C1)c1cccc(=O)n1C2 | inactive |
| CN1C[C@@H](CNC(=O)OCc2ccccc2)C[C@H]2c3cccc4c3c(cn4C)C[C@@H]21 | inconclusive: 1.4e-09 M |
